The structures appear in SMILES notation. Counter-ions that a name gives are not always drawn. Over roughly 1,000 compounds, “cFRET/donor change relative to DMSO, normalised to beta-lapachone positive control (supercomplex I-IV assembly)” has its median near 0.18; the lowest 2% begin near -1. The list shows a part of the results.

The results in this text go back to the supplement of paper PMC9877034.

The assay concerns C2C12 (NDUFB8-AcGFP / COX8A-DsRed-Monomer FRET reporter). Put plainly: cFRET/donor change relative to DMSO, normalised to beta-lapachone positive control (supercomplex I-IV assembly) (fraction of beta-lapachone effect); higher = more respiratory supercomplex assembly. Particulars: 40 µM; 24 h. On the procedure: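 Cells were treated with 40 uM compound for 24 h and imaged on an IN Cell Analyzer 6000. Corrected FRET was divided by donor signal (cFRET/donor) and measured in two replicate experiments. The score is (mean cFRET/donor of compound - mean DMSO) / (mean beta-lapachone 40 uM - mean DMSO). Compounds flagged for prominent cell death, abnormal morphology or decreased cell number were excluded.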
As to `C[N+]1(C)CCC(OC(=O)C(c2ccccc2)c2ccccc2)CC1` [4-DAMP methiodide], the cFRET/donor change came to 0.0138.

Take `C[N+]1(C)CCC(OC(=O)C(c2ccccc2)c2ccccc2)CC1`: the cFRET/donor change is -0.0299.

Compound `CN(C)CCCN1c2ccccc2Sc2ccc(C(F)(F)F)cc21` [Triflupromazine hydrochloride] returned a cFRET/donor change of 0.712.

In turn, `O=c1[nH]c(=O)n(C2CCCO2)cc1F` (configuration not stated) [Tegafur] yielded a cFRET/donor change of 0.268.

For `CCC(C)N(C)C(=O)c1cc2ccccc2c(-c2ccccc2Cl)n1` (configuration not stated), the cFRET/donor change stood at 0.438.

Regarding `Nc1nc2ccc(Cl)cc2c2nc(-c3ccco3)nn12`, the cFRET/donor change came to 0.163.

The compound `Nc1ncnc2c1c(-c1ccc(Oc3ccccc3)cc1)cn2C1CCCC1` showed a cFRET/donor change of 0.0708.

`N[C@@H]1[C@H]2CN(c3nc4c(cc3F)c(=O)c(C(=O)O)cn4-c3ccc(F)cc3F)C[C@@H]12` [Trovafloxacin mesylate]: the cFRET/donor change is 0.3.

Turning to `CN1CCN(CCCN2c3ccccc3Sc3ccc(Cl)cc32)CC1` [Prochlorperazine dimaleate], the cFRET/donor change came out at 0.466.

The compound `Cn1ccc2cc(NC(=O)Nc3cccnc3)ccc21` yielded a cFRET/donor change of 0.093.

The compound `O=C(/C=C/c1ccc(O)c(O)c1)OCCc1ccccc1` [Caffeic acid phenethyl ester] returned a cFRET/donor change of 0.294.

Regarding `CC(=O)OCC(CCn1cnc2cnc(N)nc21)COC(C)=O` [Famciclovir], the cFRET/donor change was -0.279.

`NNc1nncc2ccccc12` [Hydralazine hydrochloride] yielded a cFRET/donor change of 0.85.

The compound `CC(C)C[C@H](NP(=O)(O)O[C@H]1O[C@H](C)[C@@H](O)[C@H](O)[C@@H]1O)C(=O)N[C@@H](Cc1c[nH]c2ccccc12)C(=O)O` [Phosphoramidon disodium] registered a cFRET/donor change of 0.483.

Regarding `Cc1ccc([N+](=O)[O-])cc1S(=O)(=O)N(C)C`, the cFRET/donor change was -0.04.

With `COc1ccc(-c2cc3ncc(C)n3c(Nc3ncccc3C(N)=O)n2)cc1OC` [BAY 61-3606 hydrochloride hydrate], the cFRET/donor change came out at 0.195.

For `COc1ccc(C2CNC(=O)C2)cc1OC1CCCC1` (configuration not stated) [Rolipram], the cFRET/donor change was 0.312.

As for `CC(/C=C/c1cccc(Oc2ccc(F)cc2)c1)N(O)C(N)=O` (configuration not stated), the cFRET/donor change is 0.179.

With `O=c1c(O)c(-c2ccc(O)cc2O)oc2cc(O)cc(O)c12` [Morin], the cFRET/donor change was -3.25.

In the case of `COc1cc([C@@H]2c3cc4c(cc3[C@@H](O[C@@H]3O[C@@H]5CO[C@@H](C)O[C@H]5[C@H](O)[C@H]3O)[C@H]3COC(=O)[C@H]23)OCO4)cc(OC)c1O` [Etoposide], the cFRET/donor change came out at 0.0173.

With `COc1ccccc1OCC(O)CN1CCN(CC(=O)Nc2c(C)cccc2C)CC1` (configuration not stated) [Ranolazine dihydrochloride], the cFRET/donor change amounted to 0.057.

Compound `O=[N+]([O-])c1cccc2cn[nH]c12` [7-Nitroindazole] registered a cFRET/donor change of 0.565.

`COc1cc(/C=C(\C#N)C(=O)Nc2nnc(C(F)(F)F)s2)ccc1OCc1ccc(C(F)(F)F)cc1C(F)(F)F`: the cFRET/donor change was -0.194.

Take `CCCNCC(O)COc1ccccc1C(=O)CCc1ccccc1` (configuration not stated) [Propafenone hydrochloride]: the cFRET/donor change is 0.651.

For `N[C@H](C(=O)O)[C@H](O)c1ccc(O)c(O)c1`, the cFRET/donor change was found to be 0.419.

`CN(C)c1nc(N(C)C)nc(N(C)C)n1` [Altretamine] showed a cFRET/donor change of -0.0875.

For `Nc1nc2c(nc(Br)n2C2OC3COP(=O)(O)O[C@@H]3C2O)c(=O)[nH]1` (some centres not stated) [8-Bromo-cGMP sodium], the cFRET/donor change was 0.374.

For the compound `N[C@H](C(=O)O)c1cc(O)cc(O)c1` [(S)-3,5-Dihydroxyphenylglycine], the cFRET/donor change was 0.27.

The compound `c1ccc(C(NCc2cccnc2)(c2ccccc2)c2ccccc2)cc1` had a cFRET/donor change of 0.35.

`Cc1cccc(C#Cc2ccccc2)n1` [6-Methyl-2-(phenylethynyl)pyridine hydrochloride] had a cFRET/donor change of 0.704.

In turn, `C=CCN1CCc2c(cc(O)c(O)c2Br)[C@@H](c2ccccc2)C1` [R(+)-6-Bromo-APB hydrobromide] yielded a cFRET/donor change of 0.558.

`CCn1ccnc1CC1COc2ccccc2O1` (configuration not stated) [Imiloxan hydrochloride] yielded a cFRET/donor change of -0.0679.

On to `O=C(NOC[C@H](O)CO)c1ccc(F)c(F)c1Nc1ccc(I)cc1F`, for which the cFRET/donor change is 0.21.

`Cc1cc(C)c(/C=C2\C(=O)Nc3ccccc32)[nH]1` yielded a cFRET/donor change of -2.59.

For the compound `O=C1CC2(CCCC2)CC(=O)N1CCCCN1CCN(c2ncccn2)CC1` [Buspirone hydrochloride], the cFRET/donor change is -0.101.

With `Nc1ncnc2c1nc(Sc1ccc(Cl)cc1)n2C1OC2COP(=O)(O)O[C@@H]2[C@@H]1O` (some centres not stated) [8-(4-Chlorophenylthio)-cAMP sodium], the cFRET/donor change is 0.225.

Compound `O=C(NOCC1CC1)c1cc(Br)c(F)c(F)c1Nc1ccc(I)cc1Cl` came in with a cFRET/donor change of 0.176.

`O=C(O)C1=CCCNC1` [Guvacine hydrochloride]: the cFRET/donor change was -0.0153.

Compound `Nc1ccc(S(=O)(=O)Nc2ccnn2-c2ccccc2)cc1` [Sulfaphenazole] gave a cFRET/donor change of 0.274.

As for `CC(C)(C)[C@]1(O)CCN2C[C@H]3c4ccccc4CCc4cccc(c43)[C@@H]2C1` [(+)-Butaclamol hydrochloride], the cFRET/donor change is -0.00393.

Turning to `CC(C)(C)[C@]1(O)CCN2C[C@H]3c4ccccc4CCc4cccc(c43)[C@@H]2C1` (racemic) [(±)-Butaclamol hydrochloride], the cFRET/donor change was determined as 0.944.

In turn, `Nc1nc2[nH]c(=O)cnc2c(=O)[nH]1` [Isoxanthopterin] yielded a cFRET/donor change of -0.168.

Compound `Nc1nc(=O)c(Br)c(-c2ccccc2)[nH]1` [Bropirimine] returned a cFRET/donor change of -0.0226.

The compound `COc1cc(NS(C)(=O)=O)ccc1Nc1c2ccccc2nc2ccccc12` [Amsacrine hydrochloride] had a cFRET/donor change of 0.257.

For `N=C(N)SCCc1c[nH]cn1` [Imetit dihydrobromide], the cFRET/donor change is -0.0661.

In turn, `Cc1cnc(NC(=O)C2=C(O)c3ccccc3S(=O)(=O)N2C)s1` [Meloxicam sodium] displayed a cFRET/donor change of 0.0692.

`CC(C)NCC(O)COc1ccc(CC(N)=O)cc1` (racemic) [(±)-Atenolol]: the cFRET/donor change is -0.0379.

For `COCCOC(=O)C1=C(C)NC(C)=C(C(=O)OC/C=C/c2ccccc2)C1c1cccc([N+](=O)[O-])c1` (configuration not stated) [Cilnidipine], the cFRET/donor change stood at 0.107.

As to `CCn1nc(C(=O)O)c(=O)c2cc3c(cc21)OCO3` [Cinoxacin], the cFRET/donor change was found to be 0.515.

Regarding `CN1CCN(c2nc3cc(C(F)(F)F)ccc3n3cccc23)CC1`, the cFRET/donor change came out at 0.414.

The compound `CCCn1c(=O)c2c(ncn2C)n(CCC)c1=O` [1,3-Dipropyl-7-methylxanthine] returned a cFRET/donor change of 0.0722.

The compound `C[C@H]1C[C@H]2[C@@H]3CCC4=CC(=O)C=C[C@]4(C)[C@@]3(F)[C@@H](O)C[C@]2(C)[C@@]1(O)C(=O)CO` [Betamethasone] yielded a cFRET/donor change of 0.012.
